Source: publication PMC1414084
These are yes or no findings as the source states them, for the method shown. Some binding calls cover weakened binding; strength is not graded here. Values belong to the binder of their own block, whether it stands above or below them.

Assays:
Test in all cases: two-hybrid; mammalian two-hybrid; bait fused to the Gal4 DNA-binding domain (BIND), prey to the VP16 transcriptional activation domain (ACT); luciferase reporter; cultured mammalian cells, 37°C; positive from 3 times the background activity (level 1), the selected set is level 2 (>=5 to <10 times) and level 3 (>=10 times)
[1] = target: T1, PH0127, hypothetical protein (Pyrococcus horikoshii OT3) (UniProt O57867)
T1 sequence: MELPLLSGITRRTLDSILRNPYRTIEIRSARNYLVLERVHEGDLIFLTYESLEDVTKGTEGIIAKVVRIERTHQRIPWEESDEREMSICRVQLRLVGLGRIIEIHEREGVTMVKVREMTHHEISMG

[2] = target: PH0596, pyrrolidone-carboxylate peptidase (Pyrococcus horikoshii OT3) (UniProt O58321)
[3] = target: PH0125, 5'-methylthioadenosine phosphorylase (Pyrococcus horikoshii OT3) (UniProt O57865)
[4] = target: PH0634, 6-pyruvoyl-tetrahydropterin synthase (Pyrococcus horikoshii OT3) (UniProt O58368)
[5] = target: PH1305, hypothetical protein (Pyrococcus horikoshii OT3) (UniProt O59000)
[6] = target: T2, PH0795, hypothetical protein (Pyrococcus horikoshii OT3) (UniProt O58525)
T2 sequence: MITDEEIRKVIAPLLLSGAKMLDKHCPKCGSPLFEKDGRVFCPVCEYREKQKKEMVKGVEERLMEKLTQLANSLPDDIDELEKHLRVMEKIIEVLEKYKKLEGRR

[7] = target: PH0776, methanol dehalogenase regulatory protein (Pyrococcus horikoshii OT3) (UniProt O58484)
[8] = target: PH0519, hypothetical protein (Pyrococcus horikoshii OT3) (UniProt O58255)
[9] = target: PH0762, probable thymidylate synthase (Pyrococcus horikoshii OT3) (UniProt O58498)
[10] = target: PH0008, hypothetical protein (Pyrococcus horikoshii OT3) (UniProt O57772)
[11] = target: PH1503, hypothetical protein (Pyrococcus horikoshii OT3) (UniProt O59172)

B1: PH0127, hypothetical protein (protein, UniProt O57867 1-126)
chain: MELPLLSGITRRTLDSILRNPYRTIEIRSARNYLVLERVHEGDLIFLTYESLEDVTKGTEGIIAKVVRIERTHQRIPWEESDEREMSICRVQLRLVGLGRIIEIHEREGVTMVKVREMTHHEISMG
- binding [1]: binds

B2: PH0596, pyrrolidone-carboxylate peptidase (protein, UniProt O58321 1-206)
chain: MKILLTGFEPFGGDDKNPTMDIVEALSERIPEVVGEILPVSFKRAREKLLKVLDDVRPDITINLGLAPGRTHISVERVAVNMIDARIPDNDGEQPKDEPIVEGGPAAYFATIPTREIVEEMKKNGIPAVLSYTAGTYLCNFAMYLTLHTSATKGYPKIAGFIHVPYTPDQVLEKKNTPSMSLDLEIKGVEIAIRVAQSALHSSQLR
- binding [2]: binds

B3: PH0125, 5'-methylthioadenosine phosphorylase (protein, UniProt O57865 1-257)
chain: MPKIGIIGGSGVYGVFEPKEVVKVHTPYGRPSAPIEIGEIEGVEVAFIPRHGKYHEFPPHQVPYRANIWALHELGVERVIAINAVGSLKEEYKPGDIVIIDQFIDFTKKREYTFYNGPKVAHVSMADPFCPELRKIFIETAKELNLPVHERGTYVCIEGPRFSTRAESRMFRQFADVIGMTLVPEVNLARELGMCYVNISTVTDYDVWAEKPVDAQEVLRVMKENEEKVQKLLKRAIPKIPEERKCGCADVLKTMFV
- binding [3]: binds

B4: PH0634, 6-pyruvoyl-tetrahydropterin synthase (protein, UniProt O58368 1-115)
chain: MKSRIIVRTSFDAAHAVKVGDHWEDVHGHTFFLEVAIEGEIKNGYVMDFLELRKIVEEITKELDHRNLNNIFENPTTENIALWIGERIRDKLPPYVKLKRVVLWEGKDNGVELEW
- binding [4]: binds

B8: PH0519, hypothetical protein (protein, UniProt O58255 1-332)
chain: MMSMIEKLKKFTQIPGISGYEERIREEIIREIKDFADYKVDAIGNLIVELGEGEERILFMAHMDEIGLLITGITDEGKLRFRKVGGIDDRLLYGRHVNVVTEKGILDGVIGATPPHLSLERDKSVIPWYDLVIDIGAESKEEALELVKPLDFAVFKKHFSVLNGKYVSTRGLDDRFGVVALIEAIKDLVDHELEGKVIFAFTVQEEVGLKGAKFLANHYYPQYAFAIDSFACCSPLTGDVKLGKGPVIRAVDNSAIYSRDLARKVWSIAEKNGIEIQIGVTGGGTDASAFQDRSKTLALSVPIKYLHSEVETLHLNDLEKLVKLIEALAFEL
- binding [8]: binds

B9: PH0762, probable thymidylate synthase (protein, UniProt O58498 1-243)
chain: MVKVKLINYTPKPLETVTWAALISYWDGWSTEAFEKISPNDVEIHLPRILSYGHESILEHATFTFSIEGCSRVCTHQLVRHRIASYTQQSQRYIKINPEDVEETFVIPESIKKDSELLKEWKELLKRSLELYEKSIERGIHQEDARFILPQSVKTKIVVTMNLRELKHFFGLRLCERAQWEIREVAWKMLEEIAKRKELKPIIEWAKLGPRCIQLGYCPERELMPPGCLKRTRERWKNLLEKY
- binding [9]: binds

B10: PH0017 (protein, UniProt O57762 1-549)
chain: MAQLAGQPILILPEGTQRYVGRDAQRMNILAARIIAETVRTTLGPKGMDKMLVDSLGDIVITNDGATILDEMDIQHPAAKMMVEVAKTQDKEAGDGTTTAVVIAGELLKKAEELLDQNIHPSIIIKGYTLASQKAQEILDSIAKEVKPDDEEVLLKAAMTAITGKAAEEEREYLAKLAVEAVKLVAEEKDGKLKVDIDNIKLEKKEGGAVRDTRLIRGVVIDKEVVHPGMPKRIENAKIALINDALEVKETETDAEIRITSPEQLQAFLEQEEKMLKEMVDKIKEVGANVVFVQKGIDDLAQHYLAKYGILAVRRVKKSDMEKLAKATGAKIVTNIRDLTPEDLGEAELVEERKVAGENMIFVEGCKNPKAVTILIRGGTEHVVDEVERALEDAIKVVKDILEDGKIIAGGGASEIELSIKLDEYAKEVGGKEQLAIEAFAEALKVIPRTLAENAGLDPIETLVKVIAAHKEKGQTIGIDVYEGEPADMMERGVIEPVRVKKQAIKSASEAAIMILRIDDVIAASKLEKEKEGEKGGGSEEFSGSSDLD
- binding [6]: binds

B11: PH0126, 3-isopropylmalate dehydratase (protein, UniProt O57866 1-241)
chain: MENRPVNIVLPKIENPILIEGYPGIGLVGHIAANFLAKELKMEVIGYVESSFIPPMSLILEGKPNPPLRFYGKDNIIIAVADIYLPPTLINEIAKEIANYLEQNKAEKVISLGGMGIGIFKDKFEVWGVGGTEEENKELQDLGVKILEYGSISGMSGKLLWEASRRGLKSYVILGETFGDRPDPRAAANVVEVLDRMLTLNVSVEPLLKEAEMIEEQLRKMHEQMEKARRSVEKQYETMYL
- binding [1]: binds

B12: PH0008, hypothetical protein (protein, UniProt O57772 1-380)
chain: MKAVKATLMYDGLGNIEKNVYIIFDKDIVNITREKPKDVEVVAEGVVTPAFIDAHSHIGMDRYGEPYQESELNEQMDSVLPLADALYSIYMDDKAFKHSIEFGVLYSSILPGSGNIIGGKGVLIRNYGRDIEDAFIKYVGVKAAFGYNPRSTTNWKGLRPSTRMGAIGILFNWLIKTKKTISLLEKGKKDPEEIDPVIEALIPVLKGEMPLRVHAHKEDDIAVLLMIKRKFNLKVTVEHAADVHSKETFEKIKREGVPLVYGPLDAHPYKVELKHEDWKNAKYLLEVKPFFGLMSDHPFSIQANLYLQLRHFIRLGMSKAEAIKLITYNNAKILGIEDKLGSLEKGKWASLVVWNGDPFNLENYPTHVFAEGELIHEANL
- binding [10]: binds

The next lines start with the values.

- binding [5]: binds
B5: PH1305, hypothetical protein (protein, UniProt O59000 1-252)
chain: MYELYTLLAEYYDTIYRRRIERVKAEIDFVEEIFKEDAKREVRRVLDLACGTGIPTLELAERGYEVVGLDLHEEMLRVARRKAKERNLKIEFLQGDVLEIAFKNEFDAVTMFFSTIMYFDEEDLRKLFSKVAEALKPGGVFITDFPCWFYGGRDGPVVWNEQKGEEKLVIMDWREVEPAVQKLRFKRLVQILRPNGEVKAFLVDDELNIYTPREVRLLAEKYFEKVKIYGNLKRELSPNDMRYWIVGIAKSF

- binding [6]: binds
B6: PH0795, hypothetical protein (protein, UniProt O58525 1-105)
chain: MITDEEIRKVIAPLLLSGAKMLDKHCPKCGSPLFEKDGRVFCPVCEYREKQKKEMVKGVEERLMEKLTQLANSLPDDIDELEKHLRVMEKIIEVLEKYKKLEGRR

- binding [7]: binds
B7: PH0776, methanol dehalogenase regulatory protein (protein, UniProt O58484 1-314)
chain: MDVQKKAQMVIEEVKKAIVGKDNVLKLVLATILADGHILIEDLPGLAKTLMAKSFAKALGLEFKRVQFTPDLLPSDILGVNVFNQKTLEFEFKKGPVFTNILLADEINRAPPKTQSALLEAMQERQVTIEGVTYKLPKPFIVIATQNPIEQEGTYPLPEAQLDRFLVRLRMGYPSKDEEKEILRRRIERKQDEVEIETVLSPKDVLKMQREVEDVYVSDAIIEYITSLVWATREDKRDIEIGVSPRGSLALLKLSRAYAAIEGRDYVIPDDVKAVAIPALSHRIILKRELWYTRVSQESVIEKILERVPVPKFE

- binding [11]: binds
B13: PH1503, hypothetical protein (protein, UniProt O59172 1-127)
chain: MVEVEHWNTLRLRIYIGENDKWEGRPLYKVIVEKLREMGIAGATVYRGIYGFGKKSRVHSSDVIRLSTDLPIIVEVVDRGHNIEKVVNVIKPMIKDGMITVEPTIVLWVGTQEEIKKFEEDAIAERQ
